Results deposited as PubChem BioAssay AID504786 (Drosophila RNAi Screening Center, 2011)

Assay: 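Positive regulators of HIF-driven reporter output in Drosophila cells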 (primary screen)
Cell system: Drosophila S2 cells with a stable HIF luciferase reporter
Reagents: long dsRNA against Drosophila genes, about 0.2 µg dsRNA per well of a 384-well plate
Duration: three days of knock-down, then 20 h of DFO before reading
Challenge: desferrioxamine (DFO) at 100 µM, an iron chelator that mimics hypoxia, for 20 h
Read-out: 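HIF reporter luminescence in cells given 100 µM DFO for 20 h, using the mouse ldh-a hypoxia-response element, scored as per-plate z-scores; higher means greater loss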
Scale: z-score: higher = stronger loss of HIF reporter signal
In all, the deposit lists about 21,000 reagents; below is an unselected part of those with a known target gene and a result. 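Primary screen; positive scores mean lost reporter signal, so the sign may be inverted from the usual convention.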 A plus sign joins genes that one reagent is predicted to hit. Not all columns of the deposit are shown.

Sps1 (Selenophosphate synthetase 1) [DRSC07549]: z-score, replicate 1 = 0.6
Arp5 (Actin-related protein 5) [DRSC16350]: z-score, replicate 1 = -0.3
CG14221 [DRSC19578]: z-score, replicate 1 = -0.1
CG6216 [DRSC10606]: z-score, replicate 1 = -0.2
Cpr67Fb (Cuticular protein 67Fb) [DRSC10314]: z-score, replicate 1 = -0.3
galla-1 [DRSC05987]: z-score, replicate 1 = -0.2
Rlb1 [DRSC16826]: z-score, replicate 1 = -0.3
Mcr (Macroglobulin complement-related) [DRSC03366]: z-score, replicate 1 = -0.3
CG12377 (retired record) [DRSC11671]: z-score, replicate 1 = -0.2
CG12377 (retired record) [DRSC11672]: z-score, replicate 1 = -0.2
CG42561 [DRSC05676]: z-score, replicate 1 = -0.1
plh (pasang lhamu) [DRSC12294]: z-score, replicate 1 = -0.2
RpS21 (Ribosomal protein S21) [DRSC00833]: z-score, replicate 1 = 4.6
CG12713 [DRSC09900]: z-score, replicate 1 = -0.2
fmt (fiery mountain) [DRSC09717]: z-score, replicate 1 = 0
CG5214 [DRSC15739]: z-score, replicate 1 = -0.3
mRpL41 (mitochondrial ribosomal protein L41) [DRSC06257]: z-score, replicate 1 = 2.4
Klp67A + CG34456 [DRSC10420]: z-score, replicate 1 = -0.2
PPO3 (Prophenoloxidase 3) [DRSC04325]: z-score, replicate 1 = -0.3
TotA (Turandot A) [DRSC13448]: z-score, replicate 1 = -0.1
fwe (flower) [DRSC09398]: z-score, replicate 1 = -0.3
fwe (flower) [DRSC10594]: z-score, replicate 1 = -0.4
CG9331 [DRSC03206]: z-score, replicate 1 = 0.1
BaraA1 + BaraA2 [DRSC05417]: z-score, replicate 1 = -0.2
a5 (antennal protein 5) [DRSC00798]: z-score, replicate 1 = -0.2
Amph (Amphiphysin) [DRSC07578]: z-score, replicate 1 = -0.3
CG13748 [DRSC06419]: z-score, replicate 1 = -0.3
Ran-like [DRSC10918]: z-score, replicate 1 = -0.3
CG31743 + CG34313 [DRSC02781]: z-score, replicate 1 = -0.2
CG31743 + CG34313 [DRSC02782]: z-score, replicate 1 = 0
wdp (windpipe) [DRSC04367]: z-score, replicate 1 = -0.3
prim (primacord) [DRSC06575]: z-score, replicate 1 = -0.3
babos [DRSC03923]: z-score, replicate 1 = 0.1
babos [DRSC04397]: z-score, replicate 1 = -0.1
Mondo [DRSC02667]: z-score, replicate 1 = -0.2
Mondo [DRSC02668]: z-score, replicate 1 = -0.1
Ptip (PAX transcription activation domain interacting protein) [DRSC10660]: z-score, replicate 1 = -0.3
Ptip (PAX transcription activation domain interacting protein) [DRSC11048]: z-score, replicate 1 = 1.2
LanB1 [DRSC03360]: z-score, replicate 1 = -0.3
CG1387 [DRSC17904]: z-score, replicate 1 = -0.4
